For assay [1], the target named is T1, Cyclin G protein, endogenous in embryos (Drosophila (endogenous in wild type embryos)) (UniProt Q95TJ9).
T1 sequence: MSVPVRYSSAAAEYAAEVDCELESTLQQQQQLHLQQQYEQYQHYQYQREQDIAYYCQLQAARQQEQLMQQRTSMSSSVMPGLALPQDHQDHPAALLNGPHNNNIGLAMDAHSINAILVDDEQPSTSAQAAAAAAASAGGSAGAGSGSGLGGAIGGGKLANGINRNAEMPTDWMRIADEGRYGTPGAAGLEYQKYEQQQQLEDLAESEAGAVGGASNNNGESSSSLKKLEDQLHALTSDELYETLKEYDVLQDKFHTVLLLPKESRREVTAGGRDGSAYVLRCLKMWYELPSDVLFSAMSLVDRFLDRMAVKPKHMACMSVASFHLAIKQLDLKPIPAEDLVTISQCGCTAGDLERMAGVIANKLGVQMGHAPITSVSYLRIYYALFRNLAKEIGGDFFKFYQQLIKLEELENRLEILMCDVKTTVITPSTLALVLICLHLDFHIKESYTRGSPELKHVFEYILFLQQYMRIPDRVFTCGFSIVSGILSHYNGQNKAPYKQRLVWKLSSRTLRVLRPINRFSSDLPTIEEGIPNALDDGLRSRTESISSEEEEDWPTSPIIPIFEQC
In words: co-IP; protein extracts of approximately 500 wild type embryos; IP with rabbit anti-Hairless A or guinea pig anti-CycG antiserum, Western blot with rat antisera; mock without primary antiserum. In general terms: Immunoblotting shows a protein as a band on a membrane.

For assay [2], the target named is T2, Hairless protein, endogenous in embryos (Drosophila (endogenous in wild type embryos)) (UniProt Q02308).
T2 sequence: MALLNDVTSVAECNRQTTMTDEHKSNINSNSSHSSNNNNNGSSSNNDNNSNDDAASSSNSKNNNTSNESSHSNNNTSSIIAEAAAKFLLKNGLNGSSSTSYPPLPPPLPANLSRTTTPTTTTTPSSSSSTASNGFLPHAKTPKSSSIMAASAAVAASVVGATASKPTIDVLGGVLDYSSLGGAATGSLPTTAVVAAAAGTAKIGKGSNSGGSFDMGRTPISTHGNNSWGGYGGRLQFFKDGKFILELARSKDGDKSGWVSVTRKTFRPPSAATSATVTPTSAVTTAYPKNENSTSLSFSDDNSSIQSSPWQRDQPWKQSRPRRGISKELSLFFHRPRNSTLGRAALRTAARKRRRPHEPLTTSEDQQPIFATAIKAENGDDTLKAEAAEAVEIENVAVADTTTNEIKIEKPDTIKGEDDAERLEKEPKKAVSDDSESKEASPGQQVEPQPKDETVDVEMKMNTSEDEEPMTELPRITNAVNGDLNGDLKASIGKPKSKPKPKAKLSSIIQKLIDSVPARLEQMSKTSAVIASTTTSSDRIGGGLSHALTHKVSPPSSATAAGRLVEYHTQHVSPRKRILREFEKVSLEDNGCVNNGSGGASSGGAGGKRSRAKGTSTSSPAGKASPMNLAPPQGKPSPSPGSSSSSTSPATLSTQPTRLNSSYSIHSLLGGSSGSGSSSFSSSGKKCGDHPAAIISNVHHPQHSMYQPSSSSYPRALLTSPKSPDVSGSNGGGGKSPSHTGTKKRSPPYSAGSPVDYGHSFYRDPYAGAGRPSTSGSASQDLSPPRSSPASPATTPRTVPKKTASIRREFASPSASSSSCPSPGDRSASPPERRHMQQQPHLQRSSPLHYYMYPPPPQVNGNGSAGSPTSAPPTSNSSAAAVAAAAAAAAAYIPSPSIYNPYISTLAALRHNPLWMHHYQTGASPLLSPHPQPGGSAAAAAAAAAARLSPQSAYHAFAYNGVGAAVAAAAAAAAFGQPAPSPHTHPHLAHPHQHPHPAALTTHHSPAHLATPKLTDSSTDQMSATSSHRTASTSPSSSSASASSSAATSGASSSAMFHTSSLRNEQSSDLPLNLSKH
The description is as above.

Assay [3] addresses T3, full length Hairless (HFL) (Drosophila) (UniProt Q02308).
T3 sequence: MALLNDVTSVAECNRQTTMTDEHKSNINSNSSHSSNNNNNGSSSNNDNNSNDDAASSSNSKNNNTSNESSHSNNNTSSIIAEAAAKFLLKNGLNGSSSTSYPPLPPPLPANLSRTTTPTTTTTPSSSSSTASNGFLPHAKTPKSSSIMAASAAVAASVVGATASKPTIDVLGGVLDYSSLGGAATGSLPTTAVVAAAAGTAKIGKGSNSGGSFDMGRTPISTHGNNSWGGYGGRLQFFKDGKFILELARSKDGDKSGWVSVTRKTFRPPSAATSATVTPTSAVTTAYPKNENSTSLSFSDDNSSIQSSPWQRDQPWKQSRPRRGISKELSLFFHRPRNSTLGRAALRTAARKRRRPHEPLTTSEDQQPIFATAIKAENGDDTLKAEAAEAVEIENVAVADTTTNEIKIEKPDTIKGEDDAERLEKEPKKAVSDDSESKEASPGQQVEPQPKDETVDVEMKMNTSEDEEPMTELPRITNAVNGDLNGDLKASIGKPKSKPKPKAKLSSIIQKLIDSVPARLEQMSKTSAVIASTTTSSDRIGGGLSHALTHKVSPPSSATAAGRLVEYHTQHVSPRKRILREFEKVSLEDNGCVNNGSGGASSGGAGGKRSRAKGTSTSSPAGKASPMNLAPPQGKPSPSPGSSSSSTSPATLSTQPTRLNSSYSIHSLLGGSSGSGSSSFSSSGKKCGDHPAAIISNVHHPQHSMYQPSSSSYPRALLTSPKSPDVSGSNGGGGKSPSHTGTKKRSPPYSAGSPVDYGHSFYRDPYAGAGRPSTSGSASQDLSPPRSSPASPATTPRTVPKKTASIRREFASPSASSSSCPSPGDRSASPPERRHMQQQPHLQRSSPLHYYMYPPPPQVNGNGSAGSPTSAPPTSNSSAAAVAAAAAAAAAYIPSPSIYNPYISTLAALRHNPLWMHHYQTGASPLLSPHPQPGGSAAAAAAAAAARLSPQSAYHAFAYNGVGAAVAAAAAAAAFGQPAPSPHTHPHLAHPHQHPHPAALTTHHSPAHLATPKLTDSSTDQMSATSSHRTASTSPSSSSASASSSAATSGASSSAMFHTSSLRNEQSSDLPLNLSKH
As to the kind of experiment: two-hybrid; qualitative pairwise yeast two-hybrid assay (blue coloured colonies); pEG DNA-binding fusions, pJG and VP16 activation domain fusions; empty vectors as mock.

Four molecules from paper PMC4786218 can be followed below.

These are yes or no findings as the source states them, for the method shown. For some of these results: Binding seen in cells or lysates may run through a third protein. Some binding calls cover weakened binding; strength is not graded here.

B1: Hairless protein, endogenous in embryos (protein, UniProt Q02308 1-1077)
chain: MALLNDVTSVAECNRQTTMTDEHKSNINSNSSHSSNNNNNGSSSNNDNNSNDDAASSSNSKNNNTSNESSHSNNNTSSIIAEAAAKFLLKNGLNGSSSTSYPPLPPPLPANLSRTTTPTTTTTPSSSSSTASNGFLPHAKTPKSSSIMAASAAVAASVVGATASKPTIDVLGGVLDYSSLGGAATGSLPTTAVVAAAAGTAKIGKGSNSGGSFDMGRTPISTHGNNSWGGYGGRLQFFKDGKFILELARSKDGDKSGWVSVTRKTFRPPSAATSATVTPTSAVTTAYPKNENSTSLSFSDDNSSIQSSPWQRDQPWKQSRPRRGISKELSLFFHRPRNSTLGRAALRTAARKRRRPHEPLTTSEDQQPIFATAIKAENGDDTLKAEAAEAVEIENVAVADTTTNEIKIEKPDTIKGEDDAERLEKEPKKAVSDDSESKEASPGQQVEPQPKDETVDVEMKMNTSEDEEPMTELPRITNAVNGDLNGDLKASIGKPKSKPKPKAKLSSIIQKLIDSVPARLEQMSKTSAVIASTTTSSDRIGGGLSHALTHKVSPPSSATAAGRLVEYHTQHVSPRKRILREFEKVSLEDNGCVNNGSGGASSGGAGGKRSRAKGTSTSSPAGKASPMNLAPPQGKPSPSPGSSSSSTSPATLSTQPTRLNSSYSIHSLLGGSSGSGSSSFSSSGKKCGDHPAAIISNVHHPQHSMYQPSSSSYPRALLTSPKSPDVSGSNGGGGKSPSHTGTKKRSPPYSAGSPVDYGHSFYRDPYAGAGRPSTSGSASQDLSPPRSSPASPATTPRTVPKKTASIRREFASPSASSSSCPSPGDRSASPPERRHMQQQPHLQRSSPLHYYMYPPPPQVNGNGSAGSPTSAPPTSNSSAAAVAAAAAAAAAYIPSPSIYNPYISTLAALRHNPLWMHHYQTGASPLLSPHPQPGGSAAAAAAAAAARLSPQSAYHAFAYNGVGAAVAAAAAAAAFGQPAPSPHTHPHLAHPHQHPHPAALTTHHSPAHLATPKLTDSSTDQMSATSSHRTASTSPSSSSASASSSAATSGASSSAMFHTSSLRNEQSSDLPLNLSKH
B1: in assay [1], the binding result was “binds”.

B2: Cyclin G protein, endogenous in embryos (protein, UniProt Q95TJ9 1-566)
chain: MSVPVRYSSAAAEYAAEVDCELESTLQQQQQLHLQQQYEQYQHYQYQREQDIAYYCQLQAARQQEQLMQQRTSMSSSVMPGLALPQDHQDHPAALLNGPHNNNIGLAMDAHSINAILVDDEQPSTSAQAAAAAAASAGGSAGAGSGSGLGGAIGGGKLANGINRNAEMPTDWMRIADEGRYGTPGAAGLEYQKYEQQQQLEDLAESEAGAVGGASNNNGESSSSLKKLEDQLHALTSDELYETLKEYDVLQDKFHTVLLLPKESRREVTAGGRDGSAYVLRCLKMWYELPSDVLFSAMSLVDRFLDRMAVKPKHMACMSVASFHLAIKQLDLKPIPAEDLVTISQCGCTAGDLERMAGVIANKLGVQMGHAPITSVSYLRIYYALFRNLAKEIGGDFFKFYQQLIKLEELENRLEILMCDVKTTVITPSTLALVLICLHLDFHIKESYTRGSPELKHVFEYILFLQQYMRIPDRVFTCGFSIVSGILSHYNGQNKAPYKQRLVWKLSSRTLRVLRPINRFSSDLPTIEEGIPNALDDGLRSRTESISSEEEEDWPTSPIIPIFEQC
As for B2, the binding entry in assay [2] was “binds”.

B3: CycG deletion construct 1-215 (domain or fragment, UniProt Q95TJ9 1-215)
chain: MSVPVRYSSAAAEYAAEVDCELESTLQQQQQLHLQQQYEQYQHYQYQREQDIAYYCQLQAARQQEQLMQQRTSMSSSVMPGLALPQDHQDHPAALLNGPHNNNIGLAMDAHSINAILVDDEQPSTSAQAAAAAAASAGGSAGAGSGSGLGGAIGGGKLANGINRNAEMPTDWMRIADEGRYGTPGAAGLEYQKYEQQQQLEDLAESEAGAVGGAS
As for B3, the binding result in assay [3] is recorded as “no binding”.

B4: CycG deletion construct 215-566 (domain or fragment, UniProt Q95TJ9 215-566)
chain: SNNNGESSSSLKKLEDQLHALTSDELYETLKEYDVLQDKFHTVLLLPKESRREVTAGGRDGSAYVLRCLKMWYELPSDVLFSAMSLVDRFLDRMAVKPKHMACMSVASFHLAIKQLDLKPIPAEDLVTISQCGCTAGDLERMAGVIANKLGVQMGHAPITSVSYLRIYYALFRNLAKEIGGDFFKFYQQLIKLEELENRLEILMCDVKTTVITPSTLALVLICLHLDFHIKESYTRGSPELKHVFEYILFLQQYMRIPDRVFTCGFSIVSGILSHYNGQNKAPYKQRLVWKLSSRTLRVLRPINRFSSDLPTIEEGIPNALDDGLRSRTESISSEEEEDWPTSPIIPIFEQC
Regarding B4, the binding entry in assay [3] was “binds”.
